Data as given in paper PMC5431654.

Amino acid sequences for entries named in this document (tags omitted). A change or cut given only in a name is not applied to a line headed by its entry.
UniProt P67775: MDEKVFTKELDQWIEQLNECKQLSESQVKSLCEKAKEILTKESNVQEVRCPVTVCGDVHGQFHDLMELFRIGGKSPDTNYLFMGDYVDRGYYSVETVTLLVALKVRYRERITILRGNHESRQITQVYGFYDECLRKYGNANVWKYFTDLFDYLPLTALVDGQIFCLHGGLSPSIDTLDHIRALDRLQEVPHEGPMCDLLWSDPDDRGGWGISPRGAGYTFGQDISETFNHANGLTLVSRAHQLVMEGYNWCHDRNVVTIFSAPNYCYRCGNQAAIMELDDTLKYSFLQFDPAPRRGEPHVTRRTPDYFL
UniProt P52732: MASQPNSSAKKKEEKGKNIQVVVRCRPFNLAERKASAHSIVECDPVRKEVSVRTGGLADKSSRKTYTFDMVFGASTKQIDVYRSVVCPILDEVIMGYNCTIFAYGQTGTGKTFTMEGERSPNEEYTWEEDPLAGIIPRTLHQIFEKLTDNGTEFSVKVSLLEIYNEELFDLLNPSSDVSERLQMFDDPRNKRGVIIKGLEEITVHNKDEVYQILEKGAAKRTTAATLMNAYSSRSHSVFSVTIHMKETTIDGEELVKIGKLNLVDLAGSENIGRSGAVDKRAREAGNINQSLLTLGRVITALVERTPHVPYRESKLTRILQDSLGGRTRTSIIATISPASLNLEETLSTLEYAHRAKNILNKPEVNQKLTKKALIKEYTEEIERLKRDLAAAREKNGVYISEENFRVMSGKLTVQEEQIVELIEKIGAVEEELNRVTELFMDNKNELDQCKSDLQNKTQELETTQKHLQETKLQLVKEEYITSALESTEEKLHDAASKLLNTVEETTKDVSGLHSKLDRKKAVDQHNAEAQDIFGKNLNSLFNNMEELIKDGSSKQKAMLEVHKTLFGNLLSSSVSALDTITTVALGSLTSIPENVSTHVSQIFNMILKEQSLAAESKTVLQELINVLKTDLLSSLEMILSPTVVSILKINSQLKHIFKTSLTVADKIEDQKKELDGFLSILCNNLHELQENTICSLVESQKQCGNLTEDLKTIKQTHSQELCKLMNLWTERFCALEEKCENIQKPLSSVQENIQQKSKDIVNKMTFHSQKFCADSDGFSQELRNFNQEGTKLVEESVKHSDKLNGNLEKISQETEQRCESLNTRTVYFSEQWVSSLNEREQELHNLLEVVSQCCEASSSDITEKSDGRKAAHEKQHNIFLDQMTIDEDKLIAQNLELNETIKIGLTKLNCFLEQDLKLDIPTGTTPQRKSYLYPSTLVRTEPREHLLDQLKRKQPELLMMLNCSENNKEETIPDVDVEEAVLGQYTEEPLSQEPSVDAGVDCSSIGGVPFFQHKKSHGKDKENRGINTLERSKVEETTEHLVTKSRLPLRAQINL

Target: endogenous PP2A/C (human (endogenous in HeLa)) (UniProt P67775)
Test: co-IP; endogenous proteins; HeLa, BT549 (also MB231, MB435) cells treated with 100 nM Nocodazole for 5 hours, or HeLa cells released from a double thymidine block; NP-40 lysis buffer, antibody 4 °C 16 hours, Protein A/G beads, Western blot

Substance	binding
endogenous EG5 (KIF11) (from UniProt P52732 1-1056)	binds

Target: His-tagged PP2A/Cα (human) (UniProt P67775)
Test: pull-down; FLAG-tagged EG5 and fragments expressed in HEK293T cells incubated with purified His-PP2A/Cα conjugated to Ni-NTA agarose; anti-FLAG Western blot; only the target purified

Substance	binding
FLAG-tagged EG5 fragment Tail-1 (551aa~750aa) (from UniProt P52732 551-750) (domain or fragment)	no binding
FLAG-tagged EG5 fragment Head (1~350aa) (from UniProt P52732 1-350) (domain or fragment)	no binding
FLAG-tagged full length EG5 expressed in HEK293T (from UniProt P52732 1-1056)	binds
FLAG-tagged EG5 fragment Tail-2 (751~1057aa) (from UniProt P52732 751-1056) (domain or fragment)	binds
FLAG-tagged EG5 fragment Stalk (351~550aa) (from UniProt P52732 351-550) (domain or fragment)	no binding

These are yes or no findings as the source states them, for the method shown. In cells and extracts the contact can be indirect. Binding can be weak; no strength is given.
